These are yes or no findings as the source states them, for the method shown. Some entries that bind do so weakly or less than the wild type.
How the values were obtained:
[1] = target: GFP-Cavα2.1 (fluorescent chimera of the α1A subunit) expressed in xenopus oocytes (UniProt P27884); experiment: FRET by confocal microscopy in xenopus oocytes
[2] = target: GST-AID1.2 fusion protein (UniProt P15381); experiment: [35S] Cavβ3 incubated with GST-AID1.2, SDS-PAGE and autoradiography (legend of FIG. 2a)
[3] = target: GST-AID1.2 fusion protein (UniProt P15381); experiment: [35S] Cavβ3 incubated with GST-AID1.2, SDS-PAGE and autoradiography

Protein sequences, listed by entry. Tags and fused reporters are not part of them. Lines headed by an entry give the natural chain unless they say otherwise; changes in a name come on top. Residues count along the entry.
UniProt P27884: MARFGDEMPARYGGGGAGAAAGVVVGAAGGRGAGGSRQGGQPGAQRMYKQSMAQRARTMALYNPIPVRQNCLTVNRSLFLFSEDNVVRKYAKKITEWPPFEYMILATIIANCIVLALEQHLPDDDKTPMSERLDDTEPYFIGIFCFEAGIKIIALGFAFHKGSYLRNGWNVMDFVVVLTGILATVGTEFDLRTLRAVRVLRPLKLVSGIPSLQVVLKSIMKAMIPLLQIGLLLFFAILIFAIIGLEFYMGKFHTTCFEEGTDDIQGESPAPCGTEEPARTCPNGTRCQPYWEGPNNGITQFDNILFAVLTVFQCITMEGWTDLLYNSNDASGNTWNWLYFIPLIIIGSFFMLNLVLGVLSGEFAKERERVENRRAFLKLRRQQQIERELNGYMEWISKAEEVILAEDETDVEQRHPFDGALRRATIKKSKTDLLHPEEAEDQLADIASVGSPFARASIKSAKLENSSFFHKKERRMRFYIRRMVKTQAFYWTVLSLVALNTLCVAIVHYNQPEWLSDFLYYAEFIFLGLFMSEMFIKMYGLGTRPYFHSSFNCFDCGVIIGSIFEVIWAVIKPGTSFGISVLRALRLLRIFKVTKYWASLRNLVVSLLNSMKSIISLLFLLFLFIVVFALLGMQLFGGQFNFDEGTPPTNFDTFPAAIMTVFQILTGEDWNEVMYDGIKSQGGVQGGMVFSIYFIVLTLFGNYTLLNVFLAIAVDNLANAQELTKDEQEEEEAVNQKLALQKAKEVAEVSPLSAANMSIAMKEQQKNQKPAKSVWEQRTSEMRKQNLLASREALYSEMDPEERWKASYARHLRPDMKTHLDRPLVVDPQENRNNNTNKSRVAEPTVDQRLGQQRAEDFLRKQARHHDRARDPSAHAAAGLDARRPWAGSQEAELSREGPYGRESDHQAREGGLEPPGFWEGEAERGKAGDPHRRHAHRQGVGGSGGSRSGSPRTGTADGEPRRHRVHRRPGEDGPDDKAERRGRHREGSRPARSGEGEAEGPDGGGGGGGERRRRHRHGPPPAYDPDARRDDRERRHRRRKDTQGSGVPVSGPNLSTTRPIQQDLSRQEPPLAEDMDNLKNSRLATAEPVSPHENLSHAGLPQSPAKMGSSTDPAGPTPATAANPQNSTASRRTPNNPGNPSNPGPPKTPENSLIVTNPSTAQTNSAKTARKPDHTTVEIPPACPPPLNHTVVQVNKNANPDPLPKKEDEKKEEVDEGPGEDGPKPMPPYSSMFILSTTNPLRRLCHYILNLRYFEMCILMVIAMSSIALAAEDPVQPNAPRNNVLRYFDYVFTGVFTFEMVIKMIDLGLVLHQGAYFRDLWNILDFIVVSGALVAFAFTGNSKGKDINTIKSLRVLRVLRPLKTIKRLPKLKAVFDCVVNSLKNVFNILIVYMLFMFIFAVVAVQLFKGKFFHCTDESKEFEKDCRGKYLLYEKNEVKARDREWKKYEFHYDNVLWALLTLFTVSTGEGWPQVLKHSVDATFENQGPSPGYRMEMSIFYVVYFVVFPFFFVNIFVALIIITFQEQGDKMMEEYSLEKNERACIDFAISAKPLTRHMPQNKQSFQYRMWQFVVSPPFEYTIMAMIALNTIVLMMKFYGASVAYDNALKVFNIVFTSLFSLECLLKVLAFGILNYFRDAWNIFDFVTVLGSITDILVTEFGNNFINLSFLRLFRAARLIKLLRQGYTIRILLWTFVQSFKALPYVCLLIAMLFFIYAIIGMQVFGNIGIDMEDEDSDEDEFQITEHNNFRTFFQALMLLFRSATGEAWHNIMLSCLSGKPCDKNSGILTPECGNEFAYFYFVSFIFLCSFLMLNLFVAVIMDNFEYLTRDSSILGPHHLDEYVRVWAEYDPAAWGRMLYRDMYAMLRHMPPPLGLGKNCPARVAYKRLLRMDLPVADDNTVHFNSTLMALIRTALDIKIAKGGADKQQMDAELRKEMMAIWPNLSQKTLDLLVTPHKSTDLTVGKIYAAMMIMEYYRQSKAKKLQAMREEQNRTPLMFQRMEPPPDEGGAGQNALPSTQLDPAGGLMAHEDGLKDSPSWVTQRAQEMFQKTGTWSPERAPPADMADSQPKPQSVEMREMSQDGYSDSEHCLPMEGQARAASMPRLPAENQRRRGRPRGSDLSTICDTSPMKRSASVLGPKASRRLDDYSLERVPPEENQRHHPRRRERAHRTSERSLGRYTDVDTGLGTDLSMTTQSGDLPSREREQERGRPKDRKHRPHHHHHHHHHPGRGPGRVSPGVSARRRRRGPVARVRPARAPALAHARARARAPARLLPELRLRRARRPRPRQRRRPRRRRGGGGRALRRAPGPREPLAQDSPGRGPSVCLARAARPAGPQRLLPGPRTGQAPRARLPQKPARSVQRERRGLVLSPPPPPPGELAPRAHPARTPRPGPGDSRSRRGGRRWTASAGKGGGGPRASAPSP
UniProt P15381, residues 444-493: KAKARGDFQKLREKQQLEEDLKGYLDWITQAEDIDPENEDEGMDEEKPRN

Substance | binding [1] | binding [2] | binding [3]
purified His-Cavβ3 recombinant protein coupled to Cy3 maleimide (from UniProt P54287 1-484) | binds | – | –
Cavβ3 subunit (rat), translated in vitro in the presence of [35S]-methionine (from UniProt P54287 1-484) | – | binds | binds
